Assay results published in paper PMC12040169 (PLOS Biology, 2025).
The other results are listed elsewhere or left out.

tested on: T1, CTL2-GFP (C. trachomatis L2/434/Bu, GFP-expressing); set-up: species or system HeLa; Intracellular C. trachomatis growth in HeLa cells, bulk GFP fluorescence relative to DMSO; settings: bulk GFP, single well; 28.5 h, 10 µM; inhibitor
T1 construct: L2/434/Bu, GFP-expressing

First: Cc1cc(C)c(OCCNC(C)(C)C)c(Cl)c1 [CBK262713C]
Second: COCCNC(=O)c1cc(-c2cc(C)oc2C)nc2c1cnn2C(C)C [CBK305052]
The “% of control remaining” value of the first is lower: 119.997% for the first, 134.336% for the second.

Compared with `Cc1ccc(S(=O)(=O)N(C)c2ccnc(N3CCN(C)CC3)n2)cc1` [CBK000671], `CN1CCN(c2ccc(NC(=O)c3ccc([N+](=O)[O-])o3)cc2)CC1` [CBK269727] is lower in “% of control remaining” value: 106.312% for the first, 55.476% for the second.

First: CC(C)n1nccc1C(=O)NCC(c1ccccc1F)N1CCCC1 (centres unmarked) [CBK283032]
Second: Brc1cn2c(-c3ccccc3)cnc2c(N2CCCC2)n1 [CBK091488]
The “% of control remaining” value of the first is higher: 114.587% for the first, 91.9518% for the second.

Compared with `COCCN(C(=O)c1[nH]c2c(F)cccc2c1C)C1CCN(C)CC1` [CBK307386], `Cc1c(C(=O)N(CC(=O)O)C2CC2)nnn1-c1ccc(Cl)cc1F` [CBK304738] is lower in “% of control remaining” value: 112.466% for the first, 97.4198% for the second.

First: CN1CCN(C(=O)c2cc(Br)cnc2NCCOc2ccccc2)CC1 [CBK076231]
Second: FC(F)(F)c1cccnc1OCCNc1ccccc1 [CBK115822]
The “% of control remaining” value of the first is higher: 143.081% for the first, 112.465% for the second.

Going from `CC1SC2(C(=O)Nc3ccccc32)N(c2ccc(Oc3ccccc3)cc2)C1=O` (centres unmarked) [CBK103750] to `O=c1ccc2c(-c3cccc(OCc4ccccc4)c3)ccnc2[nH]1` [CBK073739], the “% of control remaining” value falls from 107.873% to 89.899%.

Going from `CCOC(=O)C1=C(C)N(CC)C(=O)NC1c1cc(OC)c(OC)c(OC)c1` (centres unmarked) [CBK091912] to `COc1cncc(-c2cc(NCc3cc(OC)c(OC)c(OC)c3)ncn2)c1` [CBK091183], the “% of control remaining” value falls from 138.065% to 98.3561%.

Going from `CC1CN(CCCCNCc2cn(C)nc2-c2cccnc2)CC(C)O1` (centres unmarked) [CBK304453] to `O=C(NCCCC1CCOC1)c1cnn(-c2ccc(F)cc2)c1` (centres unmarked) [CBK283288], the “% of control remaining” value rises from 96.9951% to 113.351%.

Going from `O=C1OCCN1C1CCN(S(=O)(=O)c2cccs2)CC1` [CBK043313] to `C[C@]12CN(Cc3cccs3)C[C@H]1NC(=O)c1ccccc1C2=O` [CBK284702], the “% of control remaining” value rises from 102.552% to 167.948%.

First: COCc1cc(C[C@H]2CNCC[C@H]2CC(=O)N2CCCCC2)no1 [CBK288899]
Second: O=C(c1cccnc1)C1CCN(C(=O)C2CCCC2)CC1 [CBK283508]
The “% of control remaining” value of the first is lower: 122.485% for the first, 131.797% for the second.

Going from `O=C(c1ccc2[nH]ccc2c1)N1CCc2ccccc21` [CBK200269] to `O=C(O)COc1ccc(S(=O)(=O)N2CCCc3ccccc32)cc1` [CBK269935], the “% of control remaining” value falls from 137.955% to 90.1518%.

Compared with `Cc1ccc(OCC(=O)NC(Cc2ccccc2)C(=O)O)cc1` (centres unmarked) [CBK217681], `CC(C)=C(NC(=O)c1ccccc1)C(=O)Nc1cccc(C(=O)O)c1` [CBK058180] is higher in “% of control remaining” value: 103.774% for the first, 111.548% for the second.

First: Nc1c(-c2ccsc2)cnc2cccnc12 [CBK081208]
Second: O=C(O)c1cccc(Nc2ncnc3ccccc23)c1 [CBK073042]
The “% of control remaining” value of the first is higher: 132.801% for the first, 104.333% for the second.

Compared with `CC(C)c1[nH]c2ncccc2c1CN1CCSCC1` [CBK285312], `CC(C)c1c(SCCN)[nH]c2ccccc12` [CBK017265C] is lower in “% of control remaining” value: 135.415% for the first, 93.3203% for the second.

Compared with `COc1ccccc1-c1nc(C2CCCN2C(=O)CCCC(=O)O)n2ccccc12` (centres unmarked) [CBK046600], `COc1ccc(CCCC(=O)Nc2ccccc2N2CCNCC2)cc1OC` [CBK028283T] is lower in “% of control remaining” value: 143.202% for the first, 81.9506% for the second.

Compared with `CN(C)CCN(C)c1cc(-c2cccc(Br)c2)nc2ccnn12` [CBK037140], `Cc1ccc(-c2cc(O)n(-c3nc(C)cc(C)n3)n2)cc1` [CBK270165] is higher in “% of control remaining” value: 111.453% for the first, 133.141% for the second.

First: COC(=O)c1c(NC(=O)C2CC(=O)NN2C)sc2c1CCC2 (centres unmarked) [CBK269218A]
Second: O=C(O)c1c(NS(=O)(=O)Cc2ccccc2[N+](=O)[O-])sc2c1CCCC2 [CBK024819]
The “% of control remaining” value of the first is higher: 171.828% for the first, 129.112% for the second.

First: COc1ccc(CCN2CCC(Oc3nccnc3OCCN3C(=O)CCC3=O)CC2)cc1OC [CBK084359]
Second: COc1ccc(C(=O)N2CCC3(CCN(Cc4cccc(C#N)c4)C3)C2)cc1OC (centres unmarked) [CBK132153]
The “% of control remaining” value of the first is lower: 120.628% for the first, 120.764% for the second.

Compared with `CCCC/C=C/c1nccnc1NCc1ccncc1` [CBK037500], `N#Cc1nc(/C=C/c2cccs2)oc1NCCCn1ccnc1` [CBK269455] is higher in “% of control remaining” value: 87.8093% for the first, 124.884% for the second.

Compared with `O=C(O)CS(=O)(=O)c1ccccc1C(=O)O` [CBK261083], `O=C(O)CSCC(=O)Nc1ccc(Cl)cn1` [CBK057543] is higher in “% of control remaining” value: 100% for the first, 136.371% for the second.

Compared with `Cc1cnc(NC(=O)N2CCOC(c3ccc(F)cc3F)C2)s1` (centres unmarked) [CBK304126], `COC(=O)[C@@H](C)NC(=O)[C@@H]1CN(C(=O)c2cccc(F)c2)CCN1C(C)=O` [CBK289620] is higher in “% of control remaining” value: 103.001% for the first, 106.15% for the second.

Going from `N#Cc1ccccc1CSc1nc(N)cc(O)n1` [CBK267967] to `COc1ccc([N+](=O)[O-])cc1Nc1nc(-c2ccccc2)nc2ccccc12` [CBK265913], the “% of control remaining” value falls from 130.535% to 100%.

Going from `Cc1cc(NC(=O)CN2CCN(c3ccc(F)cc3)CC2)nc2c1c(=O)oc1ccccc12` [CBK291232] to `Clc1ccc(-c2nn3c4cc(N5CCNCC5)ccc4nc3c3ccccc23)cc1` [CBK268319], the “% of control remaining” value rises from 132.24% to 133.382%.

Compared with `Cc1ccccc1OCCn1c(=N)n(CC(C)C)c2ccccc21` [CBK265392B], `CC(Oc1cccc2ccccc12)C(=O)N/N=C/c1ccc(Cl)cc1Cl` (centres unmarked) [CBK262218] is lower in “% of control remaining” value: 103.577% for the first, 103.023% for the second.

Going from `CC(=O)Nc1cccc(NC(=O)c2cc(-c3ccccc3)nn2-c2ccccc2)c1` [CBK296997] to `Cc1cc(I)ccc1NC(=O)CN(c1ccccc1)S(=O)(=O)c1ccccc1[N+](=O)[O-]` [CBK265954], the “% of control remaining” value falls from 137.552% to 67.9738%.

First: CCOC(=O)N1CCC(NS(=O)(=O)c2cc(Br)c(Cl)s2)CC1 [CBK045472]
Second: Cc1ccc(C(=O)N2CCC(CO)CC2)cc1C [CBK083532]
The “% of control remaining” value of the first is higher: 127.657% for the first, 112.461% for the second.

First: COc1cc(CNCC2CCCO2)cc(Cl)c1OCC(N)=O (centres unmarked) [CBK270238C]
Second: COc1nn(CC(=O)NC2(C)CCC2)c(=O)c2ccccc12 [CBK281603]
The “% of control remaining” value of the first is lower: 128.803% for the first, 129.059% for the second.

First: CN1CC=C(/C=C/c2c[nH]c3ccccc23)CC1 [CBK283602]
Second: O=C(OCCc1c[nH]c2ccccc12)N1CCOCC1 [CBK200415]
The “% of control remaining” value of the first is higher: 161.128% for the first, 101.171% for the second.

Going from `CCc1nn(CC(=O)N(CC)CC)c(=O)c2cc3oc(C)cc3n12` [CBK283583] to `CCc1ccc(CNC(=O)NC2CCCc3c2cnn3CCO)s1` (centres unmarked) [CBK305747], the “% of control remaining” value falls from 130.2% to 128.302%.

Compared with `Cc1ccc2c(c1)nc1n2CCC1O` (centres unmarked) [CBK113622], `Cc1ccc(C2=CCN(CC(=O)NC3CCCC3)CC2)o1` [CBK283605] is higher in “% of control remaining” value: 103.254% for the first, 129.797% for the second.

First: CC1CC(Nc2ccccc2)c2ccccc2N1 (centres unmarked) [CBK057947]
Second: Cc1ccc2c(c1)C(C)(c1ccccc1)CC(C)(C)N2C(=O)CSc1nncn1C (centres unmarked) [CBK022397]
The “% of control remaining” value of the first is higher: 121.641% for the first, 78.9696% for the second.

Compared with `CCOc1ccc2nc(NS(=O)(=O)c3ccc4c5c(cccc35)C(=O)N4)sc2c1` [CBK262162], `CCN(CC)C(=O)c1ccc(NS(=O)(=O)Cc2ccccc2[N+](=O)[O-])cc1` [CBK034396] is higher in “% of control remaining” value: 88.1408% for the first, 127.31% for the second.

Going from `Cn1nc(C2CCCC2)cc1[C@H]1CN2CC[C@H]1C[C@@H]2CNC(=O)N1CCOCC1` [CBK288740] to `CC(=O)N[C@@H](C(=O)N1CC[C@@H]2NC(=O)[C@@H](Cc3ccccc3)NC(=O)C3(C/C=C/C[C@H]2C1)CCOCC3)C(C)C` [CBK292198], the “% of control remaining” value falls from 126.153% to 104.949%.

Compared with `CC(C)(C)C(=O)N1CCC(C(=O)NC(c2ccc3c(c2)OCO3)c2ccccn2)CC1` (centres unmarked) [CBK060074], `CC(C)(C)OC(=O)N1CCCC(C(=O)NC(CO)Cc2ccccn2)C1` (centres unmarked) [CBK305458] is higher in “% of control remaining” value: 93.9996% for the first, 119.324% for the second.

Compared with `CS(=O)(=O)c1ccc(-n2ncc(-c3ccc(C(F)(F)F)cc3)n2)cc1` [CBK112698], `O=C(O)c1ccc(NC(=O)c2ccc(S(=O)(=O)N3CCCCC3)cc2)cc1` [CBK267813] is higher in “% of control remaining” value: 81.9225% for the first, 115.915% for the second.

First: CCCC1NCCn2cccc21 (centres unmarked) [CBK007074F]
Second: O=C(CSCCO)Nc1ccc(N2CCOCC2)cc1 [CBK269616]
The “% of control remaining” value of the first is lower: 132.529% for the first, 166.188% for the second.

First: COc1cccc(Oc2nccnc2-c2ccc(F)cc2)c1 [CBK106897]
Second: Cc1cc(NC(c2cccc([N+](=O)[O-])c2)c2ccc3cccnc3c2O)no1 (centres unmarked) [CBK296083]
The “% of control remaining” value of the first is lower: 102.198% for the first, 156.04% for the second.

First: COc1ccc(C(=O)N(C)Cc2cnn(C)c2)cc1Br [CBK305149]
Second: COCCn1c(SC(C)C(=O)OC)nc2ccc(Br)cc2c1=O (centres unmarked) [CBK306479]
The “% of control remaining” value of the first is higher: 115.972% for the first, 111.724% for the second.

First: Clc1cc2nc(SCCc3cnccn3)c(N3CCCC3)nc2cc1Cl [CBK103700]
Second: COc1ccc([C@@]23CC[C@@H](NC(=O)Nc4c(F)cc(F)cc4Cl)C[C@@H]2N(C)CC3)cc1OC [CBK073740T]
The “% of control remaining” value of the first is higher: 118.611% for the first, 88.3424% for the second.

Compared with `COC(=O)c1sccc1NC(=O)COc1ccc([N+](=O)[O-])cc1Cl` [CBK066828], `Nc1ncnc2c1nc1n2[C@@H]2O[C@H](C1)[C@H](O)C2O` (some centres unmarked) [CBK201224] is higher in “% of control remaining” value: 102.418% for the first, 139.937% for the second.
